Reference: US20200172956A1 (NATIONAL UNIVERSITY CORPORATION KUMAMOTO UNIVERSITY, published 2020)
These are yes or no findings as the source states them, for the method shown. Some entries that bind do so weakly or less than the wild type.

By UniProt entry, the sequences of proteins in these tests, tags left out. Where a name states a change or a piece, a line headed by the entry shows the natural chain unless it says otherwise.
UniProt Q01955: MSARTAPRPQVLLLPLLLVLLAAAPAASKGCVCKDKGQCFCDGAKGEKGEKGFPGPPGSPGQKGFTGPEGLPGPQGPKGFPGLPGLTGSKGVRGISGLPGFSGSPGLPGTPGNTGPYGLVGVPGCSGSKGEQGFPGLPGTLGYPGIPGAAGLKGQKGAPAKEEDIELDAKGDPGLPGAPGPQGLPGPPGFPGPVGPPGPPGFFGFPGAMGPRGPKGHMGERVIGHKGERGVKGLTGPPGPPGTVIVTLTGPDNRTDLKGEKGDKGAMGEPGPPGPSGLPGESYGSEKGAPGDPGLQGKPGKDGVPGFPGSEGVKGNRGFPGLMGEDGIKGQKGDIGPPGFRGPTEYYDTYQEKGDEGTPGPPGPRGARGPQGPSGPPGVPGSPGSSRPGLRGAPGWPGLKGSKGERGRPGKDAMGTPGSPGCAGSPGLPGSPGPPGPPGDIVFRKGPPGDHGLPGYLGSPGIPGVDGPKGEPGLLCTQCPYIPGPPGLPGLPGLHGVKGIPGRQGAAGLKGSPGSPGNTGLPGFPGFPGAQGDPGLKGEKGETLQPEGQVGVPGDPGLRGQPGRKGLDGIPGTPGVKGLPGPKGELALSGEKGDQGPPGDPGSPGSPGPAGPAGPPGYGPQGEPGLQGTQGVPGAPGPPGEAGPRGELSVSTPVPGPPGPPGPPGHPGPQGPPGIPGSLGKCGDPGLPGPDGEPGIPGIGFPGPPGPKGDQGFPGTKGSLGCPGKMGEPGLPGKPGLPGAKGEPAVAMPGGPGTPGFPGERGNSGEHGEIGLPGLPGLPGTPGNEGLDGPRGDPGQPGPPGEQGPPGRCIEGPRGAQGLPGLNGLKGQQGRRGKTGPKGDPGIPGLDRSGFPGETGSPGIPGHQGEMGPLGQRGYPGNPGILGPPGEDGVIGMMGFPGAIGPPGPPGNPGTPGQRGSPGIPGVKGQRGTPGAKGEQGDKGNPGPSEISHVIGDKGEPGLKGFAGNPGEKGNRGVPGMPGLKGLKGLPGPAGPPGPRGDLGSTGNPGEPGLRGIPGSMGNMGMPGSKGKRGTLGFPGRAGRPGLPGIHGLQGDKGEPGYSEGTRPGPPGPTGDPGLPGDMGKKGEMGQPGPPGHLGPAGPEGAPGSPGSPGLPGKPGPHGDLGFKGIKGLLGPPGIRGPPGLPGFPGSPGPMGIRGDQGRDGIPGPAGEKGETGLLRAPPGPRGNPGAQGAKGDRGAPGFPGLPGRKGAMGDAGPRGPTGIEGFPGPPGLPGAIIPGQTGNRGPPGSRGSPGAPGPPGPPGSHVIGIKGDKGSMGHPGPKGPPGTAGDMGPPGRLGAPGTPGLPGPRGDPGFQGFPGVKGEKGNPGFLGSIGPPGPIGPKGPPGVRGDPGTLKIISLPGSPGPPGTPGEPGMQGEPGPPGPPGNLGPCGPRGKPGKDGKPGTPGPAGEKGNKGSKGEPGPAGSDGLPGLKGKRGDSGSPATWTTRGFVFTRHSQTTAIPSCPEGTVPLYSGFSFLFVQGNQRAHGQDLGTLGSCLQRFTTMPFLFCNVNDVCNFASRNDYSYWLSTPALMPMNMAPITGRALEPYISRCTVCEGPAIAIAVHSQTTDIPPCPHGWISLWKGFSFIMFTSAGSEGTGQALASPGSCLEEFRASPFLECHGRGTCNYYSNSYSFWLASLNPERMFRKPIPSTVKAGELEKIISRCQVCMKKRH
UniProt P29400: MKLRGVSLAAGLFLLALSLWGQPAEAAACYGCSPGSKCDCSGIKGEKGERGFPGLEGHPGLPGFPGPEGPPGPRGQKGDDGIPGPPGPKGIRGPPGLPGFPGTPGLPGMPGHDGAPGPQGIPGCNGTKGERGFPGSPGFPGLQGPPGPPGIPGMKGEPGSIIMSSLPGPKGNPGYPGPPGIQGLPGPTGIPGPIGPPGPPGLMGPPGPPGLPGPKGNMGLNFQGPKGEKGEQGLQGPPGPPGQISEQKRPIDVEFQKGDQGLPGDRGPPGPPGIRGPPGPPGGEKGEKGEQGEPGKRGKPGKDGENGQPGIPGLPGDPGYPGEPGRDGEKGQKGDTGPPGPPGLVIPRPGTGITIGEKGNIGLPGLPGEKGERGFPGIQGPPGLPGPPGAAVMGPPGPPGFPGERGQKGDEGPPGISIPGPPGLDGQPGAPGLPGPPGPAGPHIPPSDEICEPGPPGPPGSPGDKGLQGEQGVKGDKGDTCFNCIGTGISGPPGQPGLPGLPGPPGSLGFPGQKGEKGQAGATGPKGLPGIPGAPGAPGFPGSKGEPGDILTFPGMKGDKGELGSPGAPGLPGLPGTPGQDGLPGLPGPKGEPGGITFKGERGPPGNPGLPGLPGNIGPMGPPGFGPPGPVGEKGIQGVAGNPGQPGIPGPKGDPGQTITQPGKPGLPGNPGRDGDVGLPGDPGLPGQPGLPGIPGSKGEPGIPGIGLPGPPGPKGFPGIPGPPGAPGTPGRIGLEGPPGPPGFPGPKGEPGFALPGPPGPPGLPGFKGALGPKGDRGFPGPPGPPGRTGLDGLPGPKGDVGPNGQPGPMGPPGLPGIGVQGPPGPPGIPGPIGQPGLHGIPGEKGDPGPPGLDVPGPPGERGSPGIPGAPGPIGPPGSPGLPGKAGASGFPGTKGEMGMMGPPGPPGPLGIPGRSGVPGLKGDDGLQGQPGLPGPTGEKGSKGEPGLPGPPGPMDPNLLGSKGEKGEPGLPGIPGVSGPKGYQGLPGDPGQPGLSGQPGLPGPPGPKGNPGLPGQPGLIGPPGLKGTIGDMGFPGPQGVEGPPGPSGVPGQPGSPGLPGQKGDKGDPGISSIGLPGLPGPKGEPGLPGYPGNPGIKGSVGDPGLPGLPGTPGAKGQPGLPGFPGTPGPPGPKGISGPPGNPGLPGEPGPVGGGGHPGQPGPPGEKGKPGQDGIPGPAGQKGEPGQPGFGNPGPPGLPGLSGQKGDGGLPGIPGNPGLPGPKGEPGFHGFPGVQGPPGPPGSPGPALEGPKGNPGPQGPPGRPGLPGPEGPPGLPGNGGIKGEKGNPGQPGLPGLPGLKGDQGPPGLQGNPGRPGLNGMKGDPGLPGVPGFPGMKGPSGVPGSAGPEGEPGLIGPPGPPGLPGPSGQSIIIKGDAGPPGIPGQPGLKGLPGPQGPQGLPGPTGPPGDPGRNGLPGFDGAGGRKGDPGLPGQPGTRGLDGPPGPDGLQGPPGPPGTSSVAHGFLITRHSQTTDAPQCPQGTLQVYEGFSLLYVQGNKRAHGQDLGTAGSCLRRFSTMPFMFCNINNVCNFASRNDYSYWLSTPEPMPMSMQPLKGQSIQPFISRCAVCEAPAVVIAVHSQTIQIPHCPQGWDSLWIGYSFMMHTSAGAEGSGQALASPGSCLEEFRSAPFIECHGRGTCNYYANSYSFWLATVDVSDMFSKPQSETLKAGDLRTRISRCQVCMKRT
UniProt P53420: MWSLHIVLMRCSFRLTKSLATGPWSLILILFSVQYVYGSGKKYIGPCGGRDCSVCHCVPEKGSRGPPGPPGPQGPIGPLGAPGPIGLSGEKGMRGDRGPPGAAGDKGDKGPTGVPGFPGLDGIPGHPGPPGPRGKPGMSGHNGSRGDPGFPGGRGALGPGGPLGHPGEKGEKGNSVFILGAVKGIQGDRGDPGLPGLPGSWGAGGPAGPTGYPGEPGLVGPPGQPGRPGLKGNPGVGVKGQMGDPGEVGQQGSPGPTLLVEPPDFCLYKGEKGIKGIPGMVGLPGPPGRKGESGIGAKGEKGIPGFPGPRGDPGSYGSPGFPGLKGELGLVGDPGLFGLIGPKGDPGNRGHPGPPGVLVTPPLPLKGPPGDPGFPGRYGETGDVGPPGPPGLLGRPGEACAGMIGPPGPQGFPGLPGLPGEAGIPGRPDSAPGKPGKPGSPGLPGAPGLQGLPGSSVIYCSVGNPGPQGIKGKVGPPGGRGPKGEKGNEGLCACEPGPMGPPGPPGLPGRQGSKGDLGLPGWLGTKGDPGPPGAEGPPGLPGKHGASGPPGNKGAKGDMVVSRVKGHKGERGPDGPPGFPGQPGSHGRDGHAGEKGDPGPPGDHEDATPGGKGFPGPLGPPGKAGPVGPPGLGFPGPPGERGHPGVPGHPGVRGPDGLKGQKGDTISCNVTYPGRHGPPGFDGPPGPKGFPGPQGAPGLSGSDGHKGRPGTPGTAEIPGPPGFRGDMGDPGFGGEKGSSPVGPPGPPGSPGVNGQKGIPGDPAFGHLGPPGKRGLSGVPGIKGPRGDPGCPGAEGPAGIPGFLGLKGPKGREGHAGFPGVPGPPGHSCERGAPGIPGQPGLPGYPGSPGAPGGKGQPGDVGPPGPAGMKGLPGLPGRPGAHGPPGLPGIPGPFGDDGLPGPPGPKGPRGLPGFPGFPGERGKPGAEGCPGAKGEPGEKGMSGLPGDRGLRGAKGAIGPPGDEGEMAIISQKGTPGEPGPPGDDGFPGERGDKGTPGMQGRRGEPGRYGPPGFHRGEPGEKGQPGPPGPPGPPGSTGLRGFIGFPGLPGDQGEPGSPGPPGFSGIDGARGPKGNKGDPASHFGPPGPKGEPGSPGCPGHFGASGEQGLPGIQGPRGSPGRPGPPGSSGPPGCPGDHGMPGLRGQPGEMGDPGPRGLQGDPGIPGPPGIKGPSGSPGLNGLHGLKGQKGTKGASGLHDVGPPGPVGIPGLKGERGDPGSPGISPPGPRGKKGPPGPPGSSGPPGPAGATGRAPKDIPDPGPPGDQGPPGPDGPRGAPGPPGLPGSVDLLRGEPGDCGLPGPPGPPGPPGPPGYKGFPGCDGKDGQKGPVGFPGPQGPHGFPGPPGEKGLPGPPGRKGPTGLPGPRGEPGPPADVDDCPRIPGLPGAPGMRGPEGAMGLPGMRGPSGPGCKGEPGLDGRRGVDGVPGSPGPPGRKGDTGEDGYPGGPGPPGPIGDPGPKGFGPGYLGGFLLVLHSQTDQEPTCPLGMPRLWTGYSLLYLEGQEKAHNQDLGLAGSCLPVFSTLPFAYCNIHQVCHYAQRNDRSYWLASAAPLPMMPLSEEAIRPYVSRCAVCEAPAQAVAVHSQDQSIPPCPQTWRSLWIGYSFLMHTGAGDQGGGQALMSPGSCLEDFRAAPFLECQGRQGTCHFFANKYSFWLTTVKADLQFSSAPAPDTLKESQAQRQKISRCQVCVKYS

What was measured:
[1] = target: type IV collagen α3-SmBiT (fusion protein having SmBiT at the C-terminal of wild-type type IV collagen α3(IV) chain) (Homo sapiens (Human)) (UniProt Q01955); assay: split luciferase (NanoBiT) complementation; transfected amount of α4-FLAG plasmid varied, α3-SmBiT and α5-LgBiT co-expressed
[2] = target: type IV collagen α5-LgBiT (fusion protein having LgBiT at the C-terminal of wild-type type IV collagen α5(IV) chain) (Homo sapiens (Human)) (UniProt P29400); assay: as above
[3] = target: type IV collagen α3-SmBiT (fusion protein having SmBiT at the C-terminal of wild-type type IV collagen α3(IV) chain) (Homo sapiens (Human)) (UniProt Q01955); assay: split luciferase (NanoBiT) complementation between α3-SmBiT and α5-LgBiT; signal seen only when α4-FLAG was co-expressed
[4] = target: type IV collagen α5-LgBiT (fusion protein having LgBiT at the C-terminal of wild-type type IV collagen α5(IV) chain) (Homo sapiens (Human)) (UniProt P29400); assay: as above

binding [1]: binds
binding [2]: binds
binding [3]: binds
binding [4]: binds
Substance: type IV collagen α4-FLAG (fusion protein having a FLAG tag at the C-terminal of wild-type type IV collagen α4(IV) chain) (from UniProt P53420 39-1690)
